Measured data: PubChem BioAssay AID1259308 (NCATS, 2017)

Aim: 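Candidate targets for better recombinant protein yield in mammalian cells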 (primary screen)
Cell system: human HEK293 embryonic kidney cells stably expressing firefly luciferase (HEK-CMV-Luc2-Hygro)
Knock-down reagent: single siRNA against human genes, 0.8 pmol siRNA per well
Time to read-out: 72 h
Detection: 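Luciferase light (ONE-Glo) measured on one replicate plate set and viability (CellTiter-Glo) on the other, scaled to a negative control siRNA, with robust z-scores and luciferase per cell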
Scale: total luciferase, z-score: higher = more reporter protein produced
Active means: 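Active when the median/MAD z-score for overall luciferase is greater than 3; a gene was taken forward for validation with new siRNAs if at least two of its three siRNAs passed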
Calls: active = raised luciferase; inactive = no rise
Shown is an unselected part of about 59,000 deposited reagents. About 1,510 of them (2.6%) were called active. 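Calls use total luciferase alone and ignore viability, so some active siRNAs may act by altering cell number.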 The numbers tell different reagents against one gene apart. Not all columns of the deposit are shown. No sequences are given here.

{"Gene": "SUCNR1 (succinate receptor 1)", "reagent no.": 1, "total luciferase, z-score": -0.658, "call": "inactive"}
{"Gene": "SUCNR1 (succinate receptor 1)", "reagent no.": 2, "total luciferase, z-score": -0.648, "call": "inactive"}
{"Gene": "SUCNR1 (succinate receptor 1)", "reagent no.": 3, "total luciferase, z-score": 0.0113, "call": "inactive"}
{"Gene": "QRSL1 (glutaminyl-tRNA amidotransferase subunit QRSL1)", "reagent no.": 1, "total luciferase, z-score": -0.333, "call": "inactive"}
{"Gene": "QRSL1 (glutaminyl-tRNA amidotransferase subunit QRSL1)", "reagent no.": 2, "total luciferase, z-score": -0.496, "call": "inactive"}
{"Gene": "QRSL1 (glutaminyl-tRNA amidotransferase subunit QRSL1)", "reagent no.": 3, "total luciferase, z-score": -0.133, "call": "inactive"}
{"Gene": "UBA3 (ubiquitin like modifier activating enzyme 3)", "reagent no.": 1, "total luciferase, z-score": -1.24, "call": "inactive"}
{"Gene": "UBA3 (ubiquitin like modifier activating enzyme 3)", "reagent no.": 2, "total luciferase, z-score": 0.677, "call": "inactive"}
{"Gene": "UBA3 (ubiquitin like modifier activating enzyme 3)", "reagent no.": 3, "total luciferase, z-score": 0.41, "call": "inactive"}
{"Gene": "LRBA-AS1 (LRBA antisense RNA 1)", "reagent no.": 1, "total luciferase, z-score": 0.102, "call": "inactive"}
{"Gene": "LRBA-AS1 (LRBA antisense RNA 1)", "reagent no.": 2, "total luciferase, z-score": 3.12, "call": "active"}
{"Gene": "LRBA-AS1 (LRBA antisense RNA 1)", "reagent no.": 3, "total luciferase, z-score": -0.367, "call": "inactive"}
{"Gene": "THOP1 (thimet oligopeptidase 1)", "reagent no.": 1, "total luciferase, z-score": 0.388, "call": "inactive"}
{"Gene": "THOP1 (thimet oligopeptidase 1)", "reagent no.": 2, "total luciferase, z-score": 0.669, "call": "inactive"}
{"Gene": "THOP1 (thimet oligopeptidase 1)", "reagent no.": 3, "total luciferase, z-score": 1.54, "call": "inactive"}
{"Gene": "CLDN4 (claudin 4)", "reagent no.": 1, "total luciferase, z-score": -0.0297, "call": "inactive"}
{"Gene": "CLDN4 (claudin 4)", "reagent no.": 2, "total luciferase, z-score": 2.04, "call": "inactive"}
{"Gene": "CLDN4 (claudin 4)", "reagent no.": 3, "total luciferase, z-score": -0.644, "call": "inactive"}
{"Gene": "PRR23E (PRR23 family member E)", "reagent no.": 1, "total luciferase, z-score": 0.556, "call": "inactive"}
{"Gene": "PRR23E (PRR23 family member E)", "reagent no.": 2, "total luciferase, z-score": -0.498, "call": "inactive"}
{"Gene": "PRR23E (PRR23 family member E)", "reagent no.": 3, "total luciferase, z-score": 0.161, "call": "inactive"}
{"Gene": "BTAF1 (B-TFIID TATA-box binding protein associated factor 1)", "reagent no.": 1, "total luciferase, z-score": -0.633, "call": "inactive"}
{"Gene": "BTAF1 (B-TFIID TATA-box binding protein associated factor 1)", "reagent no.": 2, "total luciferase, z-score": -0.752, "call": "inactive"}
{"Gene": "BTAF1 (B-TFIID TATA-box binding protein associated factor 1)", "reagent no.": 3, "total luciferase, z-score": -0.102, "call": "inactive"}
{"Gene": "C14orf39 (chromosome 14 open reading frame 39)", "reagent no.": 1, "total luciferase, z-score": 0.274, "call": "inactive"}
{"Gene": "C14orf39 (chromosome 14 open reading frame 39)", "reagent no.": 2, "total luciferase, z-score": -0.304, "call": "inactive"}
{"Gene": "C14orf39 (chromosome 14 open reading frame 39)", "reagent no.": 3, "total luciferase, z-score": 0.619, "call": "inactive"}
{"Gene": "JAK1 (Janus kinase 1)", "reagent no.": 1, "total luciferase, z-score": -2.1, "call": "inactive"}
{"Gene": "JAK1 (Janus kinase 1)", "reagent no.": 2, "total luciferase, z-score": -0.679, "call": "inactive"}
{"Gene": "JAK1 (Janus kinase 1)", "reagent no.": 3, "total luciferase, z-score": 1.99, "call": "inactive"}
{"Gene": "PCDHA7 (protocadherin alpha 7)", "reagent no.": 1, "total luciferase, z-score": 0.562, "call": "inactive"}
{"Gene": "PCDHA7 (protocadherin alpha 7)", "reagent no.": 2, "total luciferase, z-score": 1.09, "call": "inactive"}
{"Gene": "PCDHA7 (protocadherin alpha 7)", "reagent no.": 3, "total luciferase, z-score": 1.69, "call": "inactive"}

3 entries from above, set out differently.
Gene	reagent no.	total luciferase, z-score	call
LRBA-AS1 (LRBA antisense RNA 1)	3	-0.367	inactive
THOP1 (thimet oligopeptidase 1)	1	0.388	inactive
THOP1 (thimet oligopeptidase 1)	2	0.669	inactive
